The results in this text go back to paper PMC7000777.

For test [1], the target named is T1, inducible costimulator (ICOS), full-length, wild type (mouse) (UniProt Q9WVS0).
T1 sequence: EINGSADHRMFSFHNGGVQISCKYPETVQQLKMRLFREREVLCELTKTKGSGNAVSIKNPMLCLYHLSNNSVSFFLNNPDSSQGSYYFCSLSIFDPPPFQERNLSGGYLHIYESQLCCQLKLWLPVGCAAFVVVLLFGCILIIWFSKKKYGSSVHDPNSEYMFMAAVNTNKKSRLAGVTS
Briefly: co-IP; anti-ICOS (C398.4A) and goat anti-hamster secondary added to intact Jurkat cells, on ice (unstimulated) or 37 °C for 1 min (ICOS crosslinking); RIPA lysis; Protein A/G agarose overnight at 4 °C; blotted for p85 and ICOS.

The target of test [2] is T1, inducible costimulator (ICOS), full-length, wild type (mouse). Put plainly: condition: only in Lck-deficient (LCK-knockout) Jurkat cells; co-IP; anti-ICOS immunoprecipitates of ICOS-transduced Lck-deficient (CRISPR LCK-knockout) Jurkat clones; blotted for p85 and ICOS.

Results are given in words; binding and its absence hold for the method and conditions named. Binding seen in cells or lysates may run through a third protein. For some assays here: Binding can be weak; no strength is given.

As for “regulatory subunit p85 of phosphoinositide-3 kinase (PI3K) (human (endogenous in Jurkat))”, the binding entry in test [1] is recorded as “binds”; in test [2], “no binding”.
